# From patent US9018209B2, “Compounds and methods for the treatment of viruses and cancer” (Yale University, priority 2005, dated 2015)
# Some of these results come from one statement about several compounds together.
# Tested on: IIIB strain of HIV-1
# Test: Anti-HIV-1 activity: protection of infected MT-2 cells, MTT colorimetric method
# Type: cell-based
# Settings: text b118
smiles,measurement,value
COc1nc(Nc2ccc(C#N)c(OCC=C(C)C)c2)nc(OC)n1 [Compound 8h],safety margin (CC50/EC50),> 1000
CSc1ncnc(Nc2ccc(C#N)c(OCC=C(C)C)c2)n1 [Compound 8i],safety margin (CC50/EC50),> 1000
